# Screen size: about 320,000 compounds; about 2,100 (0.66%) were called active. The shares of active, inactive and inconclusive entries below differ from those in the screen. Calls come from the whole dose curve; as a rule, active = well fitted inhibition curve with a large enough effect in the signal ratio, with a control signal flat (not every such curve was filed as active); inconclusive = small, poorly fitted or top-dose-only effect, or effect the other way, or a change in a side signal; inactive = flat fitted curve, though single readings scatter; the % refers to the signal ratio. Potencies beside an inconclusive call are fits to weak or partial responses and may not hold up.
# Assay: qHTS Assay for Lipid Storage Modulators in Drosophila S3 Cells
# Details: BODIPY lipid droplet fluorescence, 18-24 h, cells fed with added oleic acid; lipid storage change, negative = inhibition: at 46.1 µM (top of the series) unless noted
# In short: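 Laser-scanning cytometry quantifies lipid droplet accumulation (500–530 nm total intensity; droplet/cell object ratio) in oleic acid-fed (400 uM added) Drosophila S3 cells treated with a concentration series. 20 uM Triacsin C defined 100% inhibition.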
# % is set by controls: 0 for no effect and ±100 for the full control effect; potency is the fitted concentration of half-maximal effect.
SMILES,"lipid storage change, negative = inhibition",Potency
CC(OC(=O)CCN=C1NS(=O)(=O)c2ccccc21)C(=O)NC1CCCCC1C (stereo not drawn),inconclusive,–
COCCCn1c(SCC(=O)NC2CCCC2)nnc1-c1ccccc1,–,"inconclusive: 29.1 µM [activator, single point]"
O=C(CN1C(=O)c2ccccc2C1=O)Nc1cccc2cccnc12,–,"inconclusive: 16.4 µM [activator, single point]"
Clc1ccc(OCCOCCOc2cccc3cccnc23)c(Br)c1,–,"inconclusive: 18.4 µM [activator, partial curve]"
COc1cccc2c1Oc1ncccc1N(C(=O)CCC(=O)NCc1cccc(C)c1)C2,inconclusive: 48.5%,–
Cc1ccc2[nH]ccc(=O)c2c1,inconclusive: -2.95%,–
Cc1nc2ccc(Br)cn2c(=O)c1Cl,inconclusive: 10.5%,–
O=S1(=O)CCC(NS(=O)(=O)c2cccc3cccnc23)C1 (stereo not drawn),–,"inconclusive: 0.0046 µM [falling, full curve, poor fit]"
COc1ccc2nc(/N=C(\N)NC(=O)N3c4ccccc4Sc4ccccc43)nc(C)c2c1,inconclusive: 16.2%,–
CC1=Nn2c(nc(-c3ccccc3)c2-c2ccccc2)NC(=O)C1Br (stereo not drawn),inconclusive: -5.38%,–
CC(/C=N/n1c(-c2cc(C)[nH]n2)n[nH]c1=S)=C\c1ccccc1,–,"inconclusive: 0.651 µM [activator, full curve]"
Cc1nc(CN(C)C(=O)CC2C(=O)NCCN2Cc2ccc(-c3ccccc3)cc2)cs1 (stereo not drawn),inconclusive: 15.7%,–
CCOC(=O)NC(Nc1cc(C)ccn1)(C(F)(F)F)C(F)(F)F,inconclusive: -5.08%,–
CCNc1nc2c(c(=O)n(C)c(=O)n2C)n1Cc1ccc(Cl)cc1,–,"inconclusive: 2.06 µM [activator, partial curve, poor fit]"
CC(=O)c1cccc(NC(=O)Nc2nc(C)cc(C)n2)c1,inconclusive: -40%,–
COc1ccc(C(=O)/C(C#N)=N/Nc2ccc([N+](=O)[O-])cc2)cc1,inconclusive: -30.4%,–
O=C1CN(C(=O)CSc2nncs2)c2ccccc2N1,inconclusive: 13.5%,–
COc1ccccc1CN1CC(C(=O)N(C)CCc2nc3ccc(F)cc3[nH]2)CCC1=O (stereo not drawn),inconclusive: -38.6%,–
COc1ccccc1C(=O)Nc1ccc(OCC(=O)N2CCCCC2C)cc1 (stereo not drawn),inconclusive: 25.3%,–
Nc1n[nH]c(N)c1N=Nc1ccccc1,inconclusive: 1.3%,–
COc1ccc(-c2csc3ncnc(N4CCN(S(=O)(=O)c5cccc(C(F)(F)F)c5)CC4)c23)cc1,inconclusive: 45.4%,–
CCSc1nnc(N2C(=O)c3ccc(C(=O)c4ccc(C(=O)O)cc4)cc3C2=O)s1,–,"inconclusive: 16.4 µM [activator, partial curve]"
COc1ccc(C2=NN(C(=O)CSc3cn(C)c4ccccc34)C(c3ccc(OC)cc3)C2)cc1 (stereo not drawn),–,"inconclusive: 1.64 µM [activator, full curve]"
CCCCCC(=O)Nc1nc(C)c(-c2csc(Nc3cc(OC)ccc3OC)n2)s1,inconclusive: -1.88%,–
NS(=O)(=O)c1ccc(N/C=C\C(=O)c2cccc3ccccc23)cc1,inconclusive: 21.5%,–
CCn1ccc2c(OCC(=O)NCCc3ccc(OC)c(OC)c3)cccc2c1=O,inconclusive,–

SMILES,"lipid storage change, negative = inhibition",Potency
O=C(COc1ccccc1/C=C1\SC(=O)NC1=O)Nc1ccc(F)cc1,inconclusive: -23.2% [at 9.22 µM],–
Brc1ccc(C2=Nn3c(nnc3-c3cccnc3)SC2)s1,inconclusive: 32.4%,–
Cc1ccc2[nH]c(=O)c(CN(CCN3CCOCC3)C(=O)Nc3ccc(F)cc3)cc2c1,–,"inconclusive: 1.03 µM [rising, full curve]"
CCOC(=O)c1sc2nc(CC(=O)OC)nc(NCc3ccco3)c2c1C,–,"inconclusive: 11.6 µM [rising, partial curve, poor fit]"
O=C(CSCc1ccc(Br)cc1)N=Nc1c(O)[nH]c2ccccc12,inconclusive: 12.4%,–
CC1(c2ccccc2)NC(=O)N(CC(=O)NC(=O)NC2CCCC2)C1=O (stereo not drawn),–,"inconclusive: 29.1 µM [rising, single point]"
Cc1ccc(-n2c(SCC(=O)Nc3ccc4c(c3)OCO4)nnc2-c2cccs2)cc1,–,"inconclusive: 9.2 µM [activator, partial curve, poor fit]"
O=C1CN(C(=O)CSc2nnc(Nc3ccccc3)s2)c2ccccc2N1,inconclusive: -46.9%,–
Cc1c(Cl)cccc1NC(=O)CSc1sc2c(O)cc(=O)[nH]c2c1C#N,inconclusive: -3.69%,–
O=C(COc1ccccc1)Nc1nn[nH]n1,inconclusive: -34.2%,–
COC(=O)[C@@]1(Cc2ccc(OC)cc2)[C@H]2c3cc(C(=O)N4CCCC4)n(Cc4ccc(C)o4)c3C[C@H]2CN1C(=O)c1ccccc1,–,"inconclusive: 20.6 µM [falling, single point]"
CN(C)c1nnnn1-c1ccc(Oc2ccccc2)cc1,inconclusive: 15.9%,–
NS(=O)(=O)c1ccc(CCNC(=O)CCCCCNc2nc(=S)[nH]c3ccccc23)cc1,inconclusive: 3.75%,–
O=C(Cn1c(=O)oc2ccccc21)Nc1ccc(F)cc1,inconclusive: -7.64%,–
CCCCN1CC(=O)N2[C@H](c3ccc(Cl)cc3)[C@@H]3C(=O)N(CC)C(=O)[C@@H]3[C@]2(C)C1=O,–,"inconclusive: 14.6 µM [activator, partial curve]"
COc1ccccc1C(O)(c1ccccc1)C(CN1CCOCC1)c1ccccc1 (stereo not drawn),inconclusive: -20.2%,–
CC(CNC(=O)COC(=O)c1cccnc1Cl)c1ccccc1 (stereo not drawn),inconclusive,–
COC(=O)CNC(=O)COC(=O)c1ccc(Cl)nc1,inconclusive: -20.6%,–
Cc1cccc(NS(=O)(=O)c2ccc3[nH]c(=O)[nH]c3c2)c1C,–,"inconclusive: 29.1 µM [falling, single point]"
O=C(O)c1cc(-c2cc3ccccc3o2)nn1-c1ccccc1,inconclusive: -0.884%,–
CCOc1ccc(S(=O)(=O)NCCC(=O)NC2=NCCS2)cc1,–,"inconclusive: 3.26 µM [falling, single point]"
Cc1ccc(Cl)c(N/C=C/C(=O)c2ccccc2)c1,–,"inconclusive: 20.6 µM [falling, single point]"
Cc1ccc(S(=O)(=O)NCc2csc(C)n2)c(C)c1,inconclusive: 28.2%,–
S=c1[nH]c(-c2ccccc2)cn1-c1ccccc1,inconclusive: 9%,–
CC(C)CCNC(=O)c1cccc(S(=O)(=O)N2CCc3ccccc32)c1,–,"inconclusive: 16.4 µM [activator, single point]"

SMILES,"lipid storage change, negative = inhibition",Potency
CCN(CC)C(=O)C1CC(=O)OC1(C)C (stereo not drawn),inconclusive: -25.1%,–
OCCOc1ccc(C2=NCCO2)cc1,inconclusive: -17.7%,–
Cc1ccc(NC(=O)CN(C)S(=O)(=O)c2ccc3c(c2)n(C)c(=O)c(=O)n3C)c(C)c1,inactive: 17.5%,–
CC(=O)C1C(c2ccccc2)c2c(noc2C)CC1(C)O (stereo not drawn),inconclusive: 14.2%,–
O=C(CN1C(=O)/C(=C/c2ccccc2F)SC1=S)NC1C=CS(=O)(=O)C1 (stereo not drawn),–,active: 16.4 µM
COc1ccc(C(=O)NCC(c2cccs2)N2CCOCC2)cc1OC (stereo not drawn),inconclusive: 21.4%,–
CCOC(=O)c1cc(CC)sc1N1C(=O)CC(Sc2ncccc2C(=O)O)C1=O (stereo not drawn),–,"inconclusive: 0.164 µM [falling, full curve, poor fit]"
O=C(CNC(=O)c1ccc2c(c1)OCCO2)N/N=C/c1ccc([N+](=O)[O-])cc1,inconclusive: -47%,–
CC(OC(=O)CN1C(=O)NC2(CCCC2)C1=O)C(=O)Nc1cccc(Cl)c1Cl (stereo not drawn),inconclusive: 24.1%,–
O=C(CSc1nnc(CNc2ccc(Cl)cc2)n1Cc1ccccc1)NCc1ccco1,inconclusive: 0.112%,–
Cc1cc(C)c2oc(=O)cc(CN3CCC(C)CC3)c2c1,inconclusive: 2.55%,–
COc1ccc(-c2cc3ccc(O)cc3oc2=O)cc1OC,inconclusive: 52.5%,–
CCOc1cc(C(=O)NCCOC)ccc1OC,inconclusive: 3.61%,–
O=C(COC(=O)c1cc([N+](=O)[O-])ccc1N1CCCC1)Nc1ccccc1OC(F)F,–,"inconclusive: 5.8 µM [activator, partial curve]"
CCC(NC(=O)c1ccccc1NC(=O)c1ccco1)C(=O)O (stereo not drawn),inconclusive: -27.1%,–
CC(=NCc1cccc(Cl)c1)c1nc(-c2ccco2)oc1O,inconclusive: 33.8%,–
CCC1NC(C(=O)O)Cc2c1[nH]c1ccccc21 (stereo not drawn),–,"inconclusive: 10.3 µM [activator, partial curve]"
NC(=O)c1ccccc1NS(=O)(=O)c1ccccc1,inconclusive: -12.5%,–
O=C(CCc1c[nH]c2ccccc12)N1CCN(S(=O)(=O)c2ccccc2)CC1,inconclusive,–
Cc1cc(C)nc(SCC(=O)c2ccc(O)cc2O)n1,inconclusive: -5.05%,–
Cc1ccc(-n2c(SCC(=O)Nc3cc(S(=O)(=O)N4CCOCC4)ccc3Cl)nc3ccccc3c2=O)cc1,inconclusive: 23.9%,–
C[C@]12CCC(=O)C=C1CC[C@@H]1[C@@H]2[C@@H](O)C[C@]2(C=O)[C@@H](C(=O)CO)CC[C@@H]12,inconclusive: -15.8%,–
CCOC(=O)c1c(N)n[nH]c1-c1ccccc1,–,"inconclusive: 0.231 µM [rising, full curve]"
CCC(=O)c1ccc(OCC(=O)Nc2nn3cnnc3s2)cc1,inconclusive: -40.5%,–
CC(=O)Nc1ccc(C(=O)NC2CCSc3ccccc32)cc1 (stereo not drawn),inconclusive: 4.33%,–
C/C(=N\Nc1nc(Cl)c(Cl)cc1Cl)c1ccc(S(=O)(=O)NCc2ccco2)cc1,inconclusive: 25.5%,–

# Full records as entered above:
# `C[C@]12CCC(=O)C=C1CC[C@@H]1[C@@H]2[C@@H](O)C[C@]2(C=O)[C@@H](C(=O)CO)CC[C@@H]12` reads lipid storage change, negative = inhibition: inconclusive: -15.8%
# `COc1ccc(C(=O)NCC(c2cccs2)N2CCOCC2)cc1OC` (stereo not drawn) reads lipid storage change, negative = inhibition: inconclusive: 21.4%
# `CC(=NCc1cccc(Cl)c1)c1nc(-c2ccco2)oc1O` reads lipid storage change, negative = inhibition: inconclusive: 33.8%
# `CC(OC(=O)CN1C(=O)NC2(CCCC2)C1=O)C(=O)Nc1cccc(Cl)c1Cl` (stereo not drawn) reads lipid storage change, negative = inhibition: inconclusive: 24.1%
